Source: the supplement of paper PMC4807443
Structures can show the parent of a compound that is named as a salt. The list shows a part of the results. The numbers are fractions of the control, whatever unit the source prints. Most entries show no effect beyond the scatter of the controls.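 MIN6, a mouse insulinoma beta-cell line, stably carries a lentiviral reporter where Pdx1 and Ins1 promoters each drive a nuclear fluorescent protein; Hoechst staining and automated imaging counted cells. Drugs were candidate hits if Ins1 promoter readout exceeded two median absolute deviations from DMSO controls while Pdx1 activity stayed near normal.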

system: MIN6; experiment: % Pdx1+ Ins1-low (RFP-only, immature) cells relative to DMSO control (fold of DMSO control); higher = more immature Pdx1+/Ins1-low cells; settings: 8.5 µM; 48 h; glucose 5 mM

| Structure (SMILES) | % Pdx1+ Ins1-low |
| --- | --- |
| COc1ccc2cc1Oc1ccc(cc1)C[C@H]1c3cc(c(OC)cc3CCN1C)Oc1c(OC)c(OC)cc3c1[C@H](C2)N(C)CC3 [Tetrandrine] | 0.629 |
| CCC1=C(C)CN(C(=O)NCCc2ccc(S(=O)(=O)NC(=O)N[C@H]3CC[C@H](C)CC3)cc2)C1=O [Glimepiride] | 1.06 |
| CCCCOc1cc(C(=O)NCCN(CC)CC)c2ccccc2n1 [Dibucaine] | 0.869 |
| CCS(=O)(=O)CCn1c([N+](=O)[O-])cnc1C [Tinidazole] | 0.826 |
| Cc1nc2n(c(=O)c1CCN1CCC(c3noc4cc(F)ccc34)CC1)CCCC2 [Risperidone] | 0.514 |
| CNCCC(Oc1ccc(C(F)(F)F)cc1)c1ccccc1 (stereo not drawn) [Fluoxetine hydrochloride] | 0.836 |
| OCc1cc(C(O)CNCCCCCCOCCCCc2ccccc2)ccc1O (stereo not drawn) [Salmeterol] | 0.951 |
| CCn1cc(C(=O)O)c(=O)c2cnc(N3CCCC3)nc21 [Piromidic acid] | 0.642 |
| Cn1c(-c2ccc3c(c2)OCO3)cc(=O)c2ccccc21 [Graveoline] | 1.09 |
| CC(=O)[C@H]1CC[C@H]2[C@@H]3C[C@H](C)C4=CC(=O)CC[C@]4(C)[C@H]3[C@@H](O)C[C@]12C [Medrysone] | 1.01 |
| O=C(O)c1cc(-c2ccc(F)cc2F)ccc1O [Diflunisal] | 0.9 |
| CCCCNC(=O)NS(=O)(=O)c1ccc(C)cc1 [Tolbutamide] | 0.791 |
| CC(C)C(=O)Nc1ccc([N+](=O)[O-])c(C(F)(F)F)c1 [Flutamide] | 0.498 |
| COc1c2c(nc3ccccc13)OC(C(C)(O)CO)C2 (stereo not drawn) [Dubinidine] | 0.387 |
| Cn1cnc([N+](=O)[O-])c1Sc1ncnc2[nH]cnc12 [Azathioprine] | 0.651 |
| COC(=O)C1=C(C)NC(C)=C(C(=O)OC(C)C)C1c1cccc2nonc12 (stereo not drawn) [Isradipine] | 0.614 |
| CC(=O)SCC(Cc1ccccc1)C(=O)NCC(=O)OCc1ccccc1 (stereo not drawn) [Racecadotril] | 0.92 |
| C[C@H](CCC(=O)O)[C@H]1CC[C@H]2[C@@H]3CC[C@@H]4C[C@H](O)CC[C@]4(C)[C@H]3CC[C@]12C [Lithocholic acid] | 0.779 |
| CC1COc2c(N3CCN(C)CC3)c(F)cc3c(=O)c(C(=O)O)cn1c23 (stereo not drawn) [Ofloxacin] | 0.739 |
| C[C@@]1(O)CCOC(=O)C1 [Mevalonic-D, L acid lactone] | 1.33 |
| COCC(=O)Nc1c(I)c(C(=O)NCC(O)CO)c(I)c(C(=O)N(C)CC(O)CO)c1I (stereo not drawn) [Iopromide] | 0.737 |
| O=C(O)CCCC[C@@H]1SC[C@@H]2NC(=O)N[C@@H]21 [Biotin] | 1.35 |
| NCCC[C@H](N)CC(=O)N[C@H]1CNC(=O)[C@H]([C@H]2C[C@H](O)NC(N)=N2)NC(=O)/C(=C/NC(N)=O)NC(=O)[C@H](CO)NC(=O)[C@H](CO)NC1=O [Viomycin sulfate] | 0.664 |
| NC(CO)C(=O)NNCc1ccc(O)c(O)c1O (stereo not drawn) [Benserazide hydrochloride] | 0.777 |
| CN(C)CCCN1c2ccccc2CCc2ccccc21 [Imipramine hydrochloride] | 0.967 |

| Structure (SMILES) | % Pdx1+ Ins1-low |
| --- | --- |
| Fc1ccc([C@@H]2CCNC[C@H]2COc2ccc3c(c2)OCO3)cc1 [Paroxetine Hydrochloride] | 0.625 |
| CN1CCC(OC(c2ccccc2)c2ccccc2)CC1 [Diphenylpyraline hydrochloride] | 1.24 |
| NCC[C@H](O)C(=O)N[C@@H]1C[C@H](N)[C@@H](O[C@H]2O[C@H](CN)[C@@H](O)[C@H](O)[C@H]2O)[C@H](O)[C@H]1O[C@H]1O[C@H](CO)[C@@H](O)[C@H](N)[C@H]1O [Amikacin hydrate] | 1.64 |
| O=C1CCC(N2C(=O)c3ccccc3C2=O)C(=O)N1 (stereo not drawn) [Thalidomide] | 0.839 |
| CC1(C)S[C@@H]2[C@H](NC(=O)Cc3ccccc3)C(=O)N2[C@H]1C(=O)O [Benzathine benzylpenicillin] | 0.796 |
| CC1(C)S[C@@H]2[C@H](NC(=O)Cc3ccccc3)C(=O)N2[C@H]1C(=O)O [Benzylpenicillin sodium] | 0.795 |
| CC(=O)OCC1=C(C(=O)O)N2C(=O)[C@@H](NC(=O)Cc3cccs3)[C@H]2SC1 [Cephalothin sodium salt] | 0.984 |
| Clc1ccc(C(Cn2ccnc2)OCc2csc3c(Cl)cccc23)c(Cl)c1 (stereo not drawn) [Sertaconazole nitrate] | 0.987 |
| CCN(CC)CCNC(=O)COc1ccc(OC)cc1 [Mefexamide hydrochloride] | 1.26 |
| C[n+]1ccccc1/C=N/O [Pralidoxime chloride] | 0.833 |
| Cc1cccc(Nc2ccccc2C(=O)O)c1C [Mefenamic acid] | 0.941 |
| O=C(O)[C@]1(O)C[C@@H](O)[C@@H](O)[C@H](O)C1 [Quinic acid] | 0.701 |
| CNCCCN1c2ccccc2CCc2ccccc21 [Desipramine hydrochloride] | 0.818 |
| O=C1OC(CN2CCOCC2)CN1/N=C/c1ccc([N+](=O)[O-])o1 (stereo not drawn) [Furaltadone hydrochloride] | 1.22 |
| Cn1c(=O)c2c(ncn2CCO)n(C)c1=O [Etofylline] | 1.1 |
| C#CCN(C)CCCOc1ccc(Cl)cc1Cl [Clorgyline hydrochloride] | 0.35 |
| O=C(O)CN(CCN(CC(=O)O)CC(=O)O)CCN(CC(=O)O)CC(=O)O [Pentetic acid] | 0.621 |
| CC(C)NCC(O)c1cc(O)cc(O)c1 (stereo not drawn) [Metaproterenol sulfate, orciprenaline sulfate] | 0.796 |
| CCN(CC)Cc1cc(Nc2ccnc3cc(Cl)ccc23)ccc1O [Amodiaquin dihydrochloride dihydrate] | 0.833 |
| CCC(=O)OCC(=O)[C@@]1(OC(=O)CC)[C@@H](C)C[C@H]2[C@@H]3CCC4=CC(=O)C=C[C@]4(C)[C@@]3(Cl)[C@@H](O)C[C@@]21C [Beclomethasone dipropionate] | 1.29 |
| O=C(/C=C/C=C/c1ccc2c(c1)OCO2)N1CCCCC1 [Piperine] | 0.996 |
| COc1ccccc1N1CCN(CCCNc2cc(=O)n(C)c(=O)n2C)CC1 [Urapidil hydrochloride] | 1.14 |
| CCCCNc1ccc(C(=O)OCCN(C)C)cc1 [Tetracaïne hydrochloride] | 1.45 |
| CN(C)[C@@H]1C(O)=C(C(=O)NCNCCCC[C@H](N)C(=O)O)C(=O)[C@@]2(O)C(O)=C3C(=O)c4c(O)cccc4[C@@](C)(O)[C@H]3C[C@@H]12 [Lymecycline] | 1.01 |
| CCN(CC)CCOc1ccc(C(=C(Cl)c2ccccc2)c2ccccc2)cc1 [Clomiphene citrate (Z,E)] | 1.19 |

A second format for part of the listing above:
Structure (SMILES) | % Pdx1+ Ins1-low
CN1CCC(OC(c2ccccc2)c2ccccc2)CC1 [Diphenylpyraline hydrochloride] | 1.24
NCC[C@H](O)C(=O)N[C@@H]1C[C@H](N)[C@@H](O[C@H]2O[C@H](CN)[C@@H](O)[C@H](O)[C@H]2O)[C@H](O)[C@H]1O[C@H]1O[C@H](CO)[C@@H](O)[C@H](N)[C@H]1O [Amikacin hydrate] | 1.64
O=C1CCC(N2C(=O)c3ccccc3C2=O)C(=O)N1 (stereo not drawn) [Thalidomide] | 0.839
CC1(C)S[C@@H]2[C@H](NC(=O)Cc3ccccc3)C(=O)N2[C@H]1C(=O)O [Benzathine benzylpenicillin] | 0.796
CC1(C)S[C@@H]2[C@H](NC(=O)Cc3ccccc3)C(=O)N2[C@H]1C(=O)O [Benzylpenicillin sodium] | 0.795

Further results

| Structure (SMILES) | % Pdx1+ Ins1-low |
| --- | --- |
| CN1CCC(=C2c3ccccc3CCc3sccc32)CC1 [Pizotifen malate] | 1.13 |
| CN1CCOC(c2ccccc2)c2ccccc2C1 (stereo not drawn) [Nefopam hydrochloride] | 0.908 |
| Cc1cnc(C(=O)NCCc2ccc(S(=O)(=O)NC(=O)NC3CCCCC3)cc2)cn1 [Glipizide] | 0.462 |
| CC(O)(P(=O)(O)O)P(=O)(O)O [Etidronic acid, disodium salt] | 1.01 |
| CCC1NC(=O)c2cc(S(N)(=O)=O)c(Cl)cc2N1 (stereo not drawn) [Quinethazone] | 1.03 |
| COc1ccccc1N1CCN(CCCCNC(=O)c2ccc3ccccc3c2)CC1 | 0.728 |
| COC(=O)[C@H]1[C@H]2C[C@@H]3c4[nH]c5cc(OC)ccc5c4CCN3C[C@H]2C[C@@H](OC(=O)/C=C/c2cc(OC)c(OC)c(OC)c2)[C@@H]1OC [Rescinnamin] | 1.65 |
| COC(=O)C1=C(C)NC(C)=C(C(=O)OCCN(C)Cc2ccccc2)C1c1cccc([N+](=O)[O-])c1 (stereo not drawn) [Nicardipine hydrochloride] | 0.536 |
| Cc1ccccc1C(OCCN(C)C)c1ccccc1 (stereo not drawn) [Orphenadrine hydrochloride] | 1.12 |
| O=C1C(O)=C([C@H]2CC[C@H](c3ccc(Cl)cc3)CC2)C(=O)c2ccccc21 [Atovaquone] | 0.913 |
| CC(C)NCC(O)c1ccc(O)c(O)c1 (single isomer, unassigned; (-)) [(-)-Isoproterenol hydrochloride] | 1.31 |
| NC(=O)NC1NC(=O)NC1=O (stereo not drawn) [Allantoin] | 1.15 |
| CN(C)CCOC(c1ccc(Cl)cc1)c1ccccn1 (stereo not drawn) [Carbinoxamine maleate salt] | 0.482 |
| CC/C(=C(\c1ccccc1)c1ccc(OCCN(C)C)cc1)c1ccccc1 [Tamoxifen citrate] | 0.973 |
| CCc1oc2ccccc2c1C(=O)c1cc(Br)c(O)c(Br)c1 [Benzbromarone] | 1.31 |
| NCc1ccc(S(N)(=O)=O)cc1 [Mafenide hydrochloride] | 0.945 |
| CN[C@@H]1[C@H](O[C@H]2[C@H](O[C@H]3[C@H](O)[C@@H](O)[C@H](NC(=N)N)[C@@H](O)[C@@H]3NC(=N)N)O[C@@H](C)[C@]2(O)CO)O[C@@H](CO)[C@H](O)[C@H]1O [Dihydrostreptomycin sulfate] | 0.832 |
| CC[N+](CC)(CC)CCOc1cccc(OCC[N+](CC)(CC)CC)c1OCC[N+](CC)(CC)CC [Gallamine triethiodide] | 1.19 |
| CCOC(=O)[N-]c1c[n+](N2CCOCC2)no1 [Molsidomine] | 1.78 |
| CC(C)(C)NCC(O)c1cc(O)cc(O)c1 (stereo not drawn) [Terbutaline hemisulfate] | 1.28 |
| NS(=O)(=O)c1cc2c(cc1Cl)NC(CC1CCCC1)NS2(=O)=O (stereo not drawn) [Cyclopenthiazide] | 0.665 |
| C#C[C@]1(O)CC[C@H]2[C@@H]3CCC4=C(CCC(=O)C4)[C@H]3CC[C@@]21C [Norethynodrel] | 0.646 |
| CC(C(=O)O)c1ccc(C(=O)c2cccs2)cc1 (stereo not drawn) [Suprofen] | 0.908 |
